Assay results taken from article doi:10.1101/2020.05.20.107664.
These are yes or no findings as the source states them, for the method shown. Binding seen in cells or lysates may run through a third protein. Binding can be weak; no strength is given. Sequences can lack the tags named with a protein.

Biological target: T1, α-COP variant K230N (α-COP-FLAG), stably expressed in MEFs (mouse) (UniProt Q8CIE6)
T1 sequence: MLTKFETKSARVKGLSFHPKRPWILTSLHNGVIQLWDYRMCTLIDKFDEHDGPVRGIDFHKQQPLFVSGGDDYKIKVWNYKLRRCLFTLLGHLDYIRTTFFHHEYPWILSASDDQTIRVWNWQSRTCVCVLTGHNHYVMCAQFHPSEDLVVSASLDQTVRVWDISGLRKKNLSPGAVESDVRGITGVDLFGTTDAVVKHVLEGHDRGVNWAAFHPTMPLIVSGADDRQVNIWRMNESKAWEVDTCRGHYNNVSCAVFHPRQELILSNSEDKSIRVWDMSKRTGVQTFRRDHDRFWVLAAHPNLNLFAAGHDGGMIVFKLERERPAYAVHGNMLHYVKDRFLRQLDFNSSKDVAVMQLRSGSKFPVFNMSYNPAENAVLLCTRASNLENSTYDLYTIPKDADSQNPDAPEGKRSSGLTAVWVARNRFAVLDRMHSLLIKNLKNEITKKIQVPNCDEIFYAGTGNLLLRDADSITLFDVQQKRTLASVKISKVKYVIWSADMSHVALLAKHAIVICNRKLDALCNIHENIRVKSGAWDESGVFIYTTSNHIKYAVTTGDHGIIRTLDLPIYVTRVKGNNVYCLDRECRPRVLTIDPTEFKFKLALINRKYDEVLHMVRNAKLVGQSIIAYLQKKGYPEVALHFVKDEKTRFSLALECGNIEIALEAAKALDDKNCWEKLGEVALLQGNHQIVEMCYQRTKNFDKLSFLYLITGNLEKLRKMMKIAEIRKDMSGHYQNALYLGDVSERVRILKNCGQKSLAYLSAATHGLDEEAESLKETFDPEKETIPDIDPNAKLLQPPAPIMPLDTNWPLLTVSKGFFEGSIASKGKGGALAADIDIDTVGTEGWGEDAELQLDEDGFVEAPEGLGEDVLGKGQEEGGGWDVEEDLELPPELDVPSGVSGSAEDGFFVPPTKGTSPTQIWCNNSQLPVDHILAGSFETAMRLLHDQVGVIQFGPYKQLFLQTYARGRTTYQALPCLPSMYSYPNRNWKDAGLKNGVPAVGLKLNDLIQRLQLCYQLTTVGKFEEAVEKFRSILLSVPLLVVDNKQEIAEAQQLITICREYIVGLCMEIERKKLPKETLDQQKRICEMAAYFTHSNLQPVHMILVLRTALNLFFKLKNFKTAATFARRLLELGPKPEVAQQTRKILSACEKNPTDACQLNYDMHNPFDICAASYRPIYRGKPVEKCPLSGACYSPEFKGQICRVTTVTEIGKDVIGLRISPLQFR
Assay: co-IP

binding: binds
Substance: EGFP-mouse STING, stably expressed in MEFs
